Assay [1] concerns the target T1, MDK, endogenous in glioma cells (human (endogenous in SF126, U118MG, U251)) (UniProt P21741).
T1 sequence: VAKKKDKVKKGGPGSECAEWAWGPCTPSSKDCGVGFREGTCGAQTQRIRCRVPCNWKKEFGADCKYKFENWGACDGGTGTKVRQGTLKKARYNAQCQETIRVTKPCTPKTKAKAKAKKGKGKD
Kind of assay: proximity ligation; Duolink In Situ PLA; fixed, permeabilised SF126, U118MG and U251 cells; primary antibodies against MDK and c-Myc; endogenous proteins.

Protein sequences, listed by entry. Tags and fused reporters are not part of them.
UniProt P01106: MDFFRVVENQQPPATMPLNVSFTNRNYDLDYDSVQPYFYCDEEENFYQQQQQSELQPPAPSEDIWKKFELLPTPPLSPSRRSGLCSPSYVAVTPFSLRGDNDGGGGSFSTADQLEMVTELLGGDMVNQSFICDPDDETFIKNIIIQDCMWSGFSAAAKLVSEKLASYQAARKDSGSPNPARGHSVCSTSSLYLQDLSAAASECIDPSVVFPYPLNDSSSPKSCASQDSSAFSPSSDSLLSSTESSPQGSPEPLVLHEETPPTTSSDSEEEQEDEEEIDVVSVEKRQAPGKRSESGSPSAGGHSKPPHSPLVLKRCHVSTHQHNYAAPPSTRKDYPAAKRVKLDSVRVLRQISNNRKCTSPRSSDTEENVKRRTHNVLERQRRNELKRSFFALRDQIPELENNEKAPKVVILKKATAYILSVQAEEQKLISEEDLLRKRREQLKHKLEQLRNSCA

Assay [2] concerns the target T2, FLAG-MDK (midkine) (human) (UniProt P21741).
T2 sequence: T1 sequence
Briefly: co-IP; lysates (IP lysis buffer) of U118MG, SF126, U251 and U87 cells overexpressing MDK; MDK or c-Myc antibody or control IgG on protein A/G magnetic beads, 2 h at 4°C; Western blot.

No constants are given. Whether binding was seen depends on the method and setting. In cells and extracts the contact can be indirect. Some results given as binding are weak or reduced against the parent protein; the word gives no strength. For some assays here: Tags and fused reporters may be left off the sequences shown.

This passage reports binding results from publication PMC12137620, “Targeting the MDK/c‐Myc complex to overcome temozolomide resistance in glioma” (Clinical and Translational Medicine, 2025).

For “c-Myc, endogenous in glioma cells (from UniProt P01106 1-454)”, the binding result in assay [1] and in assay [2] was “binds” throughout.
